Two substances from article PMC6981129 can be followed below.

By UniProt entry, the sequences of proteins in these tests, tags left out. Where a name states a change or a piece, a line headed by the entry shows the natural chain unless it says otherwise.
UniProt A3BE68: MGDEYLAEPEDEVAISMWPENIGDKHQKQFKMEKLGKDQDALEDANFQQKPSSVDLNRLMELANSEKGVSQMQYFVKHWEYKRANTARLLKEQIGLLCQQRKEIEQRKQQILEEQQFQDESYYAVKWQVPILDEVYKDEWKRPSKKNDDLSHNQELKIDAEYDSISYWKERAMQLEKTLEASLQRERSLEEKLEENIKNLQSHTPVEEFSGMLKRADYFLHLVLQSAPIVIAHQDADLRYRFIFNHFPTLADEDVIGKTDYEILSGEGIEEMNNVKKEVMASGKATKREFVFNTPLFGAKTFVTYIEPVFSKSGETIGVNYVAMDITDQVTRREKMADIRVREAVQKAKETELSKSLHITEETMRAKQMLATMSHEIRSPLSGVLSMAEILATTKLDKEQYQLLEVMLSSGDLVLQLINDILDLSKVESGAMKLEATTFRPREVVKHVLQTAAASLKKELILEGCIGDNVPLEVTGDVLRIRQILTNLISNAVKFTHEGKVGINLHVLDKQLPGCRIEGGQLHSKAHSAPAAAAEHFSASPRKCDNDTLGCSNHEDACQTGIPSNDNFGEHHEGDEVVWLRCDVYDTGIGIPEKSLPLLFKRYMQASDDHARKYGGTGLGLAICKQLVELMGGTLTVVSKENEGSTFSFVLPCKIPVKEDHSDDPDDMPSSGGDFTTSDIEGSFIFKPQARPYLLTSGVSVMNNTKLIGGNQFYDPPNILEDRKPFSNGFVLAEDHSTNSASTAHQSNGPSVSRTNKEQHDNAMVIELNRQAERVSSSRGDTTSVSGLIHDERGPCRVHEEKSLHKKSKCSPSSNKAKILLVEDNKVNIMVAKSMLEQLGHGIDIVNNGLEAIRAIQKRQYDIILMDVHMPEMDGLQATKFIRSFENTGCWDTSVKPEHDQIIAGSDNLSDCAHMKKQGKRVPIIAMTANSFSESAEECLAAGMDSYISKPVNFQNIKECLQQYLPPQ

Numbering of substitutions follows the chain as printed. No constants are given. Whether binding was seen depends on the method and setting. Binding calls can cover weak binding; strength is not graded here. For part of these data: In cells and extracts the contact can be indirect. For part of these data: Sequences can lack the tags named with a protein.

Test [1] has as its target T1, ERS2GAF-GFP (rice (Oryza sativa L.)) (UniProt Q0DKM0).
T1 sequence: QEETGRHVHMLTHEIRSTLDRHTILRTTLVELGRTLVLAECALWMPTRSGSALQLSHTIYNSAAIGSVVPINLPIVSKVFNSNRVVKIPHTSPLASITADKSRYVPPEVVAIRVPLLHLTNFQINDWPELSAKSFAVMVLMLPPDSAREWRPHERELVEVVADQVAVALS
In words: co-IP; MHZ1-FLAG and GFP-tagged receptor versions cotransformed into rice protoplasts; IP buffer 50 mM HEPES pH 7.5, 150 mM NaCl, 0.5 mM EDTA, 0.5% NP-40; immunoprecipitated with GFP-Trap beads 2 h at 4 °C; immunoblot with anti-GFP and anti-FLAG.

The target of test [2] is T2, OsERS2-Cub (ethylene receptor OsERS2) (rice (Oryza sativa L.)) (UniProt Q0DKM0).
T2 sequence: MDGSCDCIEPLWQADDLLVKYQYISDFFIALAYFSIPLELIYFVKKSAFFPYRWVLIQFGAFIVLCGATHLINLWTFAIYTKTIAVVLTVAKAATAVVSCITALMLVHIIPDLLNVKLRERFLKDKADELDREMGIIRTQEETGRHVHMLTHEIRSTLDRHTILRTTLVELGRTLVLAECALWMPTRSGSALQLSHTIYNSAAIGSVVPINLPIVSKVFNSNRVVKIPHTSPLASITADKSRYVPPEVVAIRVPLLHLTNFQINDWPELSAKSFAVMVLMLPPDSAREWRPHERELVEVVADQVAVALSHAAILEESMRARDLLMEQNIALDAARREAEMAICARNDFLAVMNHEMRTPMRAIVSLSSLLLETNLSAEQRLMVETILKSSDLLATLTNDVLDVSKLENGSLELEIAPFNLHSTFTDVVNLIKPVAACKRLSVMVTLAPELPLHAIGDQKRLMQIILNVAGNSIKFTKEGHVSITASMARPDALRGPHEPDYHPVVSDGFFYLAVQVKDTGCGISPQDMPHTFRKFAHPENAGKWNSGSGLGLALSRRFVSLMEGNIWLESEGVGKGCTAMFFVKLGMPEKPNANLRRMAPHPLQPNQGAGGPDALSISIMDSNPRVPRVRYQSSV
In words: two-hybrid; split-ubiquitin membrane-based yeast two-hybrid (DUAL membrane starter kit SUC); bait OsERS2-Cub in pBT3-STE, prey NubG-MHZ1 in pPR3-N, yeast strain NMY51; interaction read as growth on SD-Trp-Leu-His-Ade.

Test [3] concerns the target T3, Osers2^d (OsERS2 with the dominant gain-of-function mutation A32V) (rice (Oryza sativa L.)) (UniProt Q0DKM0).
T3 sequence: T2 sequence with A32V
The description is as above.

For the substance “MHZ1-FLAG (from UniProt A3BE68) (enzyme)”, in test [1], the binding entry is “binds”.

As to “NubG-MHZ1 (histidine kinase MHZ1/OsHK1) (from UniProt A3BE68) (enzyme)”, the binding entry in test [2] and in test [3] was “binds” in each case.
